Test results reported in PubChem BioAssay AID1487 (National Center for Advancing Translational Sciences (NCATS), 2009).
The other results are listed elsewhere or left out. Further columns of the screen follow, without active or inactive calls. The list favours compounds with an active or inconclusive main result. The note in brackets gives the kind of curve behind each potency; many fits are weak.

Assay: qHTS Assay for Modulators of Lamin A Splicing
Settings: HeLa LMNA splicing GFP/RFP minigene ratio, 48 h
In short: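 S3 HeLa stable clones carrying a lamin A-EGFP splicing minigene plus DsRed2 were seeded at 600 cells/well in Opti-MEM with 2% FBS, pin-dosed and incubated 48 h at 37°C. Acumen cytometry (488 nm) gave the GFP/RFP total-intensity ratio.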

[1] = measured here: RFP viability control channel
[2] = measured here: GFP splicing reporter channel

SMILES | AC50 [1] | AC50 [2]
CC1CCC(C(C)C)C(OP(N)(=O)c2ccccc2)C1 (stereo unspecified) | 12.6 µM [rising, single point] | –
O=P(O)(O)C(O)(Cn1ccnc1)P(=O)(O)O | 0.631 µM [falling, single point] | 1.12 µM [falling, partial curve]
CCCOP(=O)(OCCC)C(Nc1cccc(C(F)(F)F)c1)c1ccc(C)cc1 (stereo unspecified) | 15.8 µM [rising, partial curve] | –
COc1ccc(C(=O)C2CCCN(C3CSCCSC3)C2)cc1OC (stereo unspecified) | 0.158 µM [falling, full curve, poor fit] | –
CCC1(c2ccccc2)C(=O)N(COC)C(=O)N(COC)C1=O | 4.47 µM [rising, partial curve, poor fit] | 2.51 µM [rising, partial curve, poor fit]
CCOP(=O)(OCC)C(Nc1cccc(C(F)(F)F)c1)c1ccc(Br)cc1 (stereo unspecified) | 35.5 µM [rising, single point] | –
C[C@]12CC[C@H](O)C[C@@H]1CC[C@H]1[C@H]2CC[C@]2(C)C(=O)CC[C@@H]12 | 0.501 µM [falling, partial curve, poor fit] | 0.447 µM [falling, partial curve, poor fit]
O=C(C[N+]12CCC(CC1)C(CO)C2)c1ccc([N+](=O)[O-])cc1 (stereo unspecified) | 0.0708 µM [falling, full curve, poor fit] | –
O=C(Cc1cc(=O)[nH][nH]1)N/N=C/c1cccc2ccccc12 | 4.47 µM [falling, partial curve, poor fit] | 0.158 µM [falling, full curve, poor fit]
O=C(CF)NC(Nc1cccc2cccnc12)C(Cl)(Cl)Cl (stereo unspecified) | 1.78 µM [rising, partial curve, poor fit] | –
CCOC(=O)C1C(C=C(C)C)C1(C)C (stereo unspecified) | 35.5 µM [rising, single point] | –
CN(C)CC1CSCCC1(O)c1ccc(C(F)(F)F)cc1 (stereo unspecified) | 0.00794 µM [rising, full curve, poor fit] | –
C/C=C\c1ccc(OC)cc1 | 0.316 µM [falling, partial curve] | 0.0794 µM [falling, full curve, poor fit]
OC(COCc1ccc(Cl)cc1)CN1CC=C(c2ccccc2)CC1 (stereo unspecified) | 20 µM [rising, single point] | 17.8 µM [rising, single point]
Cc1ccccc1NC(=O)CSc1nc2ccccc2c2nc(CCn3c(C)nc4ccccc43)nn12 | 6.31 µM [falling, partial curve, poor fit] | 35.5 µM [falling, single point]
O=[N+]([O-])C(Br)(CO)CO | 35.5 µM [falling, single point] | 35.5 µM [falling, single point]
CCCCCn1c(=O)c(C(=O)NCc2ccco2)c(O)c2ccccc21 | 28.2 µM [rising, single point] | –
CCOc1ccc(S(=O)(=O)NCCc2sc3nc(-c4ccc(C)cc4)nn3c2C)cc1 | 44.7 µM [falling, partial curve, poor fit] | 0.316 µM [falling, full curve, poor fit]
CCCCCSc1cc(O)c(C(CNC)C(C)C)cc1OC (stereo unspecified) | 17.8 µM [rising, partial curve] | 11.2 µM [rising, partial curve]
Cc1ccc(-c2nc3ccccc3c(=O)n2-c2cc(C)ccn2)cc1 | 5.62 µM [falling, single point] | 3.16 µM [falling, single point]
Cc1sc2ccccc2c1CC1=NCCN1 | 11.2 µM [falling, partial curve] | 0.00224 µM [falling, full curve, poor fit]
CCCCn1c(O)c(/C=N/N2CCCCC2c2cccnc2)c(=O)[nH]c1=S (stereo unspecified) | 0.2 µM [falling, full curve, poor fit] | 0.178 µM [falling, full curve, poor fit]
COc1cccc(CNc2ccc(S(N)(=O)=O)cc2)c1OCc1ccccc1F | 22.4 µM [rising, partial curve] | 22.4 µM [rising, partial curve, poor fit]
CCN(CC)C(=O)N[C@H]1C=C2c3cccc4[nH]cc(c34)C[C@@H]2N(C)C1 | 0.01 µM [falling, full curve, poor fit] | 0.447 µM [falling, full curve]
COc1cc2c(cc1O)C[C@H]1NCCc3cc4c(c-2c31)OCO4 | 11.2 µM [rising, partial curve] | –
COc1ccc(S(=O)(=O)Nc2cc([N+](=O)[O-])ccc2OC)cc1 | 12.6 µM [rising, single point] | –
CN1c2ccccc2Oc2ccccc21 | 1.78 µM [rising, partial curve, poor fit] | –

An excerpt of these results, in markdown.

| SMILES | AC50 [1] | AC50 [2] |
| --- | --- | --- |
| O=C(CF)NC(Nc1cccc2cccnc12)C(Cl)(Cl)Cl (stereo unspecified) | 1.78 µM [rising, partial curve, poor fit] | – |
| CCOC(=O)C1C(C=C(C)C)C1(C)C (stereo unspecified) | 35.5 µM [rising, single point] | – |

Further entries:

SMILES | AC50 [1] | AC50 [2]
Cn1c(O)c(C=NC2CCCCCC2)c(=O)[nH]c1=S | 3.98 µM [rising, partial curve, poor fit] | –
CC[N+]12CCC(CC1)C(=C(c1ccccc1)c1ccccc1)C2 | 10 µM [rising, partial curve] | –
CCOP(=O)(OCC)c1nc(-c2cccc3ccccc23)oc1NCc1ccccc1 | 17.8 µM [rising, single point] | 14.1 µM [rising, single point]
COc1cc(CNC(=O)CCCC/C=C/C(C)C)ccc1O | 35.5 µM [falling, single point] | –
C[C@@H](C(=O)O)c1ccc(C(=O)c2cccs2)cc1 | 0.355 µM [falling, single point] | 0.00794 µM [falling, full curve, poor fit]
CN1C[C@H](C(=O)N[C@]2(C)O[C@@]3(O)[C@@H]4CCCN4C(=O)[C@H](Cc4ccccc4)N3C2=O)C=C2c3cccc4[nH]cc(c34)C[C@H]21 | 11.2 µM [rising, partial curve, poor fit] | –
NNCc1cccc(O)c1 | 15.8 µM [falling, partial curve, poor fit] | –
CCOc1ccccc1-n1c(O)c(C=Nc2ccc(N(CC)CC)cc2)c(=O)[nH]c1=O | 35.5 µM [rising, single point] | –
COc1cc(/C=N/Nc2ccc(S(N)(=O)=O)cc2)cc(OC)c1OC | 6.31 µM [rising, full curve] | –
CCOC(=O)c1cccc(NC(=O)c2cnc(N3CCCCC3)c3ccccc23)c1 | 7.08 µM [falling, partial curve, poor fit] | –
CCCN(CCC)[C@@H]1CCc2c(F)ccc(O)c2C1 | 2.82 µM [rising, single point] | –
COc1cc2c(c(OC)c1OC)-c1ccc(OC)c(=O)cc1[C@H](NC(C)=O)CC2 | 0.0794 µM [falling, full curve] | 0.0501 µM [falling, full curve]
CCC(=Nc1ccc(OC)cc1OC)c1c(O)n(C2CCCCC2)c(=O)[nH]c1=O | 15.8 µM [rising, single point] | 12.6 µM [rising, partial curve]
CNc1cc(Cl)c2nonc2c1[N+](=O)[O-] | 10 µM [falling, partial curve, poor fit] | –
Cc1cc(/C=C2\C(=O)NC(=O)N(Cc3ccccc3Cl)C2=O)c(C)n1-c1ccc(C(=O)O)cc1 | 0.00316 µM [falling, full curve, poor fit] | –
Cc1ccc(N=C2N=C(N)c3ccccc32)c(C)c1 | 35.5 µM [rising, single point] | –
CC1CN(c2ccc([N+](=O)[O-])cc2Cl)CCN1 (stereo unspecified) | 0.02 µM [falling, full curve, poor fit] | –
CCCN(CCC)C(=O)Cc1c(-c2ccc(Cl)cc2)nc2c(Cl)cc(Cl)cn12 | 6.31 µM [falling, single point] | 5.62 µM [falling, partial curve, poor fit]
O=C(CSc1nnnn1-c1ccccc1)Nc1ccc(N2CCOCC2)c(Cl)c1 | 14.1 µM [rising, partial curve] | 11.2 µM [rising, partial curve]
O=C(OCCCCN1C(=O)c2ccccc2C1=O)c1ccc(Br)o1 | 5.62 µM [rising, single point] | –
Cc1nn(Cc2ccccc2Cl)c(C)c1C(=O)NC1CCCc2ccccc21 (stereo unspecified) | 11.2 µM [rising, single point] | –
Cc1nc(N2CCN(Cc3ccccc3)CC2)nc2c1C(=O)CC(C)C2 (stereo unspecified) | 20 µM [rising, single point] | –
CCCCCCCC(=O)OCC(COC(=O)CCCCCCC)OC(=O)CCCCCCC | 0.0178 µM [rising, full curve, poor fit] | 0.0224 µM [rising, full curve, poor fit]
C=CCOc1c(Cl)cc(CNc2ccc3[nH]c(=O)[nH]c3c2)cc1OC | 11.2 µM [rising, partial curve] | 17.8 µM [rising, partial curve, poor fit]
O=C(CC[N+](=O)[O-])OCC1OC(O)C(OC(=O)CC[N+](=O)[O-])[C@@H](OC(=O)CC[N+](=O)[O-])C1OC(=O)CC[N+](=O)[O-] (stereo partly specified) | – | 11.2 µM [rising, partial curve]
COc1ccccc1-n1c(/C=C/c2ccccc2)nc2ccccc2c1=O | – | 22.4 µM [falling, partial curve, poor fit]
